Measurements reported in patent US20210087226 (published 2021).

Experiment: general procedure: Fmoc solid-phase peptide synthesis; Rink Amide MBHA resin; HOBt/DIC
Conditions: whole synthesis, 220 nm, acetate

vasopressin
final HPLC purity (run 1): 99.56% | final HPLC purity (run 2): 99.62% | final HPLC purity (run 3): 99.52% | crude HPLC purity (run 1): 73.63% | crude HPLC purity (run 2): 75.23% | crude HPLC purity (run 3): 75.66%
